Source: the supplement of paper PMC9233669
This sample is rich in variants without activity.

How the values were obtained:
biotinyl-Trp-oxazolone = assay: self-aminoacylation, catalytic enhancement (BWO) (fold over background); higher = more active; k-Seq, kA / k0A0; sequences stand for … in GGGAAUGGAUCCACAUCUACGAAUUC…UUCACUGCAGACUUGACGAAGCUG
In short: (§1)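 Working in 50 μL HEPES/NaCl/KCl/MgCl2/CaCl2 buffer with 5% acetonitrile at pH 6.9–7.0, mutagenized RNA pools (0.43 μM; 21-nt variable region) were reacted with 2–1250 μM of each biotinyl-aminoacyl-oxazolone for 90 minutes at room temperature. Streptavidin capture followed, with quantification by triplicate qPCR and Illumina sequencing. Catalytic enhancement is reported as median kA over the uncatalyzed rate, the low-activity peak of a bimodal Gaussian fit to the data.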

biotinyl-Leu-oxazolone = assay: self-aminoacylation, catalytic enhancement (BLO) (fold over background); higher = more active; k-Seq, kA / k0A0; sequences stand for … in GGGAAUGGAUCCACAUCUACGAAUUC…UUCACUGCAGACUUGACGAAGCUG
In short: as §1

biotinyl-Val-oxazolone = assay: self-aminoacylation, catalytic enhancement (BVO) (fold over background); higher = more active; k-Seq, kA / k0A0; sequences stand for … in GGGAAUGGAUCCACAUCUACGAAUUC…UUCACUGCAGACUUGACGAAGCUG
In short: as §1

biotinyl-Ile-oxazolone = assay: self-aminoacylation, catalytic enhancement (BIO) (fold over background); higher = more active; k-Seq, kA / k0A0; sequences stand for … in GGGAAUGGAUCCACAUCUACGAAUUC…UUCACUGCAGACUUGACGAAGCUG
In short: as §1

biotinyl-Met-oxazolone = assay: self-aminoacylation, catalytic enhancement (BMO) (fold over background); higher = more active; k-Seq, kA / k0A0; sequences stand for … in GGGAAUGGAUCCACAUCUACGAAUUC…UUCACUGCAGACUUGACGAAGCUG
In short: as §1

biotinyl-Phe-oxazolone = assay: self-aminoacylation, catalytic enhancement (BFO) (fold over background); higher = more active; k-Seq, kA / k0A0; sequences stand for … in GGGAAUGGAUCCACAUCUACGAAUUC…UUCACUGCAGACUUGACGAAGCUG
In short: as §1

For “AAAUUUGCUAAUGGUCGCAAG [Fam3.1 aminoacylation ribozyme variant]”, the self-aminoacylation (biotinyl-Trp-oxazolone) was 1.05, the self-aminoacylation (biotinyl-Leu-oxazolone) was 1.59 and the self-aminoacylation (biotinyl-Val-oxazolone) was 1.27. It also gave a self-aminoacylation (biotinyl-Ile-oxazolone) of 1.57, a self-aminoacylation (biotinyl-Met-oxazolone) of 1.3 and a self-aminoacylation (biotinyl-Phe-oxazolone) of 1.63.
“AAAUUUGCUAUUAGUCGCAAG [Fam3.1 aminoacylation ribozyme variant]” showed a self-aminoacylation (biotinyl-Trp-oxazolone) of 1.68, a self-aminoacylation (biotinyl-Leu-oxazolone) of 1.72 and a self-aminoacylation (biotinyl-Val-oxazolone) of 1.54. It also gave a self-aminoacylation (biotinyl-Ile-oxazolone) of 1.88, a self-aminoacylation (biotinyl-Met-oxazolone) of 1.72 and a self-aminoacylation (biotinyl-Phe-oxazolone) of 1.57.
In the case of “AACUUUCCUAAUAGUCGCAAG [Fam3.1 aminoacylation ribozyme variant]”, the self-aminoacylation (biotinyl-Trp-oxazolone) is reported as 1.72, the self-aminoacylation (biotinyl-Leu-oxazolone) is reported as 1.58 and the self-aminoacylation (biotinyl-Val-oxazolone) is reported as 1.11. The self-aminoacylation (biotinyl-Ile-oxazolone) was 1.29, the self-aminoacylation (biotinyl-Met-oxazolone) was 1.4 and the self-aminoacylation (biotinyl-Phe-oxazolone) was 2.29.
“AAGAUUGCUAACAGUCGCAAG [Fam3.1 aminoacylation ribozyme variant]” gave a self-aminoacylation (biotinyl-Trp-oxazolone) of 1.68, a self-aminoacylation (biotinyl-Leu-oxazolone) of 1.88 and a self-aminoacylation (biotinyl-Val-oxazolone) of 1.72. It also gave a self-aminoacylation (biotinyl-Ile-oxazolone) of 1.81, a self-aminoacylation (biotinyl-Met-oxazolone) of 1.24 and a self-aminoacylation (biotinyl-Phe-oxazolone) of 2.49.
With “AAGAUUGCUUAUAGUCGCAAG [Fam3.1 aminoacylation ribozyme variant]” the self-aminoacylation (biotinyl-Trp-oxazolone) was 2.35, the self-aminoacylation (biotinyl-Leu-oxazolone) was 1.5 and the self-aminoacylation (biotinyl-Val-oxazolone) was 1.5. The self-aminoacylation (biotinyl-Ile-oxazolone) was 1.78, the self-aminoacylation (biotinyl-Met-oxazolone) was 1.25 and the self-aminoacylation (biotinyl-Phe-oxazolone) was 2.44.
Sequence “AAGGUGGCUAAUAGUCGCAAG [Fam3.1 aminoacylation ribozyme variant]” has a self-aminoacylation (biotinyl-Trp-oxazolone) of 1.95, a self-aminoacylation (biotinyl-Leu-oxazolone) of 1.74 and a self-aminoacylation (biotinyl-Val-oxazolone) of 1.41. It also gave a self-aminoacylation (biotinyl-Ile-oxazolone) of 1.63, a self-aminoacylation (biotinyl-Met-oxazolone) of 1.65 and a self-aminoacylation (biotinyl-Phe-oxazolone) of 1.82.
With “AAGGUUGCUAAUAGACGCAAG [Fam3.1 aminoacylation ribozyme variant]” the self-aminoacylation (biotinyl-Trp-oxazolone) was 0.85, the self-aminoacylation (biotinyl-Leu-oxazolone) was 0.598 and the self-aminoacylation (biotinyl-Val-oxazolone) was 0.682. It also gave a self-aminoacylation (biotinyl-Ile-oxazolone) of 0.653, a self-aminoacylation (biotinyl-Met-oxazolone) of 0.807 and a self-aminoacylation (biotinyl-Phe-oxazolone) of 1.15.
“AAGUAUGCUAAAAGUCGCAAG [Fam3.1 aminoacylation ribozyme variant]” gave a self-aminoacylation (biotinyl-Trp-oxazolone) of 3.97, a self-aminoacylation (biotinyl-Leu-oxazolone) of 1.87 and a self-aminoacylation (biotinyl-Val-oxazolone) of 1.4. For the same sequence, the self-aminoacylation (biotinyl-Ile-oxazolone) was 1.86, the self-aminoacylation (biotinyl-Met-oxazolone) was 1.39 and the self-aminoacylation (biotinyl-Phe-oxazolone) was 8.97.
“AAGUAUGCUAAUUGUCGCAAG [Fam3.1 aminoacylation ribozyme variant]” showed a self-aminoacylation (biotinyl-Trp-oxazolone) of 1.37, a self-aminoacylation (biotinyl-Leu-oxazolone) of 1.29 and a self-aminoacylation (biotinyl-Val-oxazolone) of 1.34. The self-aminoacylation (biotinyl-Ile-oxazolone) was 1.48, the self-aminoacylation (biotinyl-Met-oxazolone) was 1.53 and the self-aminoacylation (biotinyl-Phe-oxazolone) was 1.8.
“AAGUAUGCUACUAGUCGCAAG [Fam3.1 aminoacylation ribozyme variant]” gave a self-aminoacylation (biotinyl-Trp-oxazolone) of 1.66, a self-aminoacylation (biotinyl-Leu-oxazolone) of 1.29 and a self-aminoacylation (biotinyl-Val-oxazolone) of 1.16. The self-aminoacylation (biotinyl-Ile-oxazolone) was 1.6, the self-aminoacylation (biotinyl-Met-oxazolone) was 1.04 and the self-aminoacylation (biotinyl-Phe-oxazolone) was 1.86.
Work on “AAGUAUGGUAAUAGUCGCAAG [Fam3.1 aminoacylation ribozyme variant]” yielded a self-aminoacylation (biotinyl-Trp-oxazolone) of 1.46, a self-aminoacylation (biotinyl-Leu-oxazolone) of 1.69 and a self-aminoacylation (biotinyl-Val-oxazolone) of 1.33. It also gave a self-aminoacylation (biotinyl-Ile-oxazolone) of 1.61, a self-aminoacylation (biotinyl-Met-oxazolone) of 1.54 and a self-aminoacylation (biotinyl-Phe-oxazolone) of 1.46.
With “AAGUCUGCUAAUUGUCGCAAG [Fam3.1 aminoacylation ribozyme variant]” the self-aminoacylation (biotinyl-Trp-oxazolone) was 1.74, the self-aminoacylation (biotinyl-Leu-oxazolone) was 0.931 and the self-aminoacylation (biotinyl-Val-oxazolone) was 1.06. The self-aminoacylation (biotinyl-Ile-oxazolone) was 1.06, the self-aminoacylation (biotinyl-Met-oxazolone) was 1.69 and the self-aminoacylation (biotinyl-Phe-oxazolone) was 1.84.
“AAGUGAGCUAAUAGUCGCAAG [Fam3.1 aminoacylation ribozyme variant]” gave a self-aminoacylation (biotinyl-Trp-oxazolone) of 1.7, a self-aminoacylation (biotinyl-Leu-oxazolone) of 1.13 and a self-aminoacylation (biotinyl-Val-oxazolone) of 1.26. For the same sequence, the self-aminoacylation (biotinyl-Ile-oxazolone) was 1.67, the self-aminoacylation (biotinyl-Met-oxazolone) was 1.3 and the self-aminoacylation (biotinyl-Phe-oxazolone) was 1.57.
Sequence “AAGUGUGCAAAUAGUCGCAAG [Fam3.1 aminoacylation ribozyme variant]” has a self-aminoacylation (biotinyl-Trp-oxazolone) of 1.03, a self-aminoacylation (biotinyl-Leu-oxazolone) of 0.923 and a self-aminoacylation (biotinyl-Val-oxazolone) of 1.07. The self-aminoacylation (biotinyl-Ile-oxazolone) was 1.18, the self-aminoacylation (biotinyl-Met-oxazolone) was 1.13 and the self-aminoacylation (biotinyl-Phe-oxazolone) was 1.08.
With “AAGUGUGCUAAUACUCGCAAG [Fam3.1 aminoacylation ribozyme variant]” the self-aminoacylation (biotinyl-Trp-oxazolone) was 0.97, the self-aminoacylation (biotinyl-Leu-oxazolone) was 0.658 and the self-aminoacylation (biotinyl-Val-oxazolone) was 0.842. It also gave a self-aminoacylation (biotinyl-Ile-oxazolone) of 0.959, a self-aminoacylation (biotinyl-Met-oxazolone) of 0.806 and a self-aminoacylation (biotinyl-Phe-oxazolone) of 0.767.
“AAGUUAGCUAAUAGUAGCAAG [Fam3.1 aminoacylation ribozyme variant]” was tested, and the self-aminoacylation (biotinyl-Trp-oxazolone) was 1.33, the self-aminoacylation (biotinyl-Leu-oxazolone) was 1.02 and the self-aminoacylation (biotinyl-Val-oxazolone) was 1.07. It also gave a self-aminoacylation (biotinyl-Ile-oxazolone) of 1.43, a self-aminoacylation (biotinyl-Met-oxazolone) of 1.09 and a self-aminoacylation (biotinyl-Phe-oxazolone) of 1.62.
“AAGUUAGCUAAUAGUCGCAAC [Fam3.1 aminoacylation ribozyme variant]” was tested, and the self-aminoacylation (biotinyl-Trp-oxazolone) was 1.62, the self-aminoacylation (biotinyl-Leu-oxazolone) was 1.01 and the self-aminoacylation (biotinyl-Val-oxazolone) was 1.29. It also gave a self-aminoacylation (biotinyl-Ile-oxazolone) of 1.38, a self-aminoacylation (biotinyl-Met-oxazolone) of 1.05 and a self-aminoacylation (biotinyl-Phe-oxazolone) of 1.82.
“AAGUUCGCUAAGAGUCGCAAG [Fam3.1 aminoacylation ribozyme variant]” gave a self-aminoacylation (biotinyl-Trp-oxazolone) of 1.73, a self-aminoacylation (biotinyl-Leu-oxazolone) of 1.56 and a self-aminoacylation (biotinyl-Val-oxazolone) of 1.71. The self-aminoacylation (biotinyl-Ile-oxazolone) was 1.24, the self-aminoacylation (biotinyl-Met-oxazolone) was 1.19 and the self-aminoacylation (biotinyl-Phe-oxazolone) was 1.58.
In the case of “AAGUUCGCUAAUAGUGGCAAG [Fam3.1 aminoacylation ribozyme variant]”, the self-aminoacylation (biotinyl-Trp-oxazolone) is reported as 0.444, the self-aminoacylation (biotinyl-Leu-oxazolone) is reported as 0.8 and the self-aminoacylation (biotinyl-Val-oxazolone) is reported as 0.56. It also gave a self-aminoacylation (biotinyl-Ile-oxazolone) of 0.737, a self-aminoacylation (biotinyl-Met-oxazolone) of 0.601 and a self-aminoacylation (biotinyl-Phe-oxazolone) of 0.484.
With “AAGUUCGUUAAUAGUCGCAAG [Fam3.1 aminoacylation ribozyme variant]” the self-aminoacylation (biotinyl-Trp-oxazolone) was 1.56, the self-aminoacylation (biotinyl-Leu-oxazolone) was 1.94 and the self-aminoacylation (biotinyl-Val-oxazolone) was 1.53. It also gave a self-aminoacylation (biotinyl-Ile-oxazolone) of 1.93, a self-aminoacylation (biotinyl-Met-oxazolone) of 1.77 and a self-aminoacylation (biotinyl-Phe-oxazolone) of 3.09.
Sequence “AAGUUGCCUAAUAGUCGCAAG [Fam3.1 aminoacylation ribozyme variant]” has a self-aminoacylation (biotinyl-Trp-oxazolone) of 1.22, a self-aminoacylation (biotinyl-Leu-oxazolone) of 1.36 and a self-aminoacylation (biotinyl-Val-oxazolone) of 1.47. It also gave a self-aminoacylation (biotinyl-Ile-oxazolone) of 1.52, a self-aminoacylation (biotinyl-Met-oxazolone) of 1.86 and a self-aminoacylation (biotinyl-Phe-oxazolone) of 1.57.
Sequence “AAGUUGGCUAAUAGACGCAAG [Fam3.1 aminoacylation ribozyme variant]” has a self-aminoacylation (biotinyl-Trp-oxazolone) of 0.915, a self-aminoacylation (biotinyl-Leu-oxazolone) of 0.602 and a self-aminoacylation (biotinyl-Val-oxazolone) of 0.685. For the same sequence, the self-aminoacylation (biotinyl-Ile-oxazolone) was 0.777, the self-aminoacylation (biotinyl-Met-oxazolone) was 0.473 and the self-aminoacylation (biotinyl-Phe-oxazolone) was 1.
Work on “AAGUUGGCUAAUAGUCGCACG [Fam3.1 aminoacylation ribozyme variant]” yielded a self-aminoacylation (biotinyl-Trp-oxazolone) of 2.11, a self-aminoacylation (biotinyl-Leu-oxazolone) of 1.81 and a self-aminoacylation (biotinyl-Val-oxazolone) of 1.63. The self-aminoacylation (biotinyl-Ile-oxazolone) was 1.35, the self-aminoacylation (biotinyl-Met-oxazolone) was 1.61 and the self-aminoacylation (biotinyl-Phe-oxazolone) was 2.62.
Sequence “AAGUUGGGUAAUAGUCGCAAG [Fam3.1 aminoacylation ribozyme variant]” has a self-aminoacylation (biotinyl-Trp-oxazolone) of 1.83, a self-aminoacylation (biotinyl-Leu-oxazolone) of 1.16 and a self-aminoacylation (biotinyl-Val-oxazolone) of 1.26. For the same sequence, the self-aminoacylation (biotinyl-Ile-oxazolone) was 1.33, the self-aminoacylation (biotinyl-Met-oxazolone) was 1.39 and the self-aminoacylation (biotinyl-Phe-oxazolone) was 1.96.
“AAGUUUACUAAUAGUCACAAG [Fam3.1 aminoacylation ribozyme variant]” showed a self-aminoacylation (biotinyl-Trp-oxazolone) of 1.39, a self-aminoacylation (biotinyl-Leu-oxazolone) of 1.33 and a self-aminoacylation (biotinyl-Val-oxazolone) of 1.44. For the same sequence, the self-aminoacylation (biotinyl-Ile-oxazolone) was 1.74, the self-aminoacylation (biotinyl-Met-oxazolone) was 1.33 and the self-aminoacylation (biotinyl-Phe-oxazolone) was 2.55.
